Assay results from publication PMC8253827.
No constants are given. Whether binding was seen depends on the method and setting. Binding seen in cells or lysates may run through a third protein. Some binding calls cover weakened binding; strength is not graded here.

Target: T1, mouse FYCO1, endogenous (mouse (endogenous in eyeballs)) (UniProt Q8VDC1)
T1 sequence: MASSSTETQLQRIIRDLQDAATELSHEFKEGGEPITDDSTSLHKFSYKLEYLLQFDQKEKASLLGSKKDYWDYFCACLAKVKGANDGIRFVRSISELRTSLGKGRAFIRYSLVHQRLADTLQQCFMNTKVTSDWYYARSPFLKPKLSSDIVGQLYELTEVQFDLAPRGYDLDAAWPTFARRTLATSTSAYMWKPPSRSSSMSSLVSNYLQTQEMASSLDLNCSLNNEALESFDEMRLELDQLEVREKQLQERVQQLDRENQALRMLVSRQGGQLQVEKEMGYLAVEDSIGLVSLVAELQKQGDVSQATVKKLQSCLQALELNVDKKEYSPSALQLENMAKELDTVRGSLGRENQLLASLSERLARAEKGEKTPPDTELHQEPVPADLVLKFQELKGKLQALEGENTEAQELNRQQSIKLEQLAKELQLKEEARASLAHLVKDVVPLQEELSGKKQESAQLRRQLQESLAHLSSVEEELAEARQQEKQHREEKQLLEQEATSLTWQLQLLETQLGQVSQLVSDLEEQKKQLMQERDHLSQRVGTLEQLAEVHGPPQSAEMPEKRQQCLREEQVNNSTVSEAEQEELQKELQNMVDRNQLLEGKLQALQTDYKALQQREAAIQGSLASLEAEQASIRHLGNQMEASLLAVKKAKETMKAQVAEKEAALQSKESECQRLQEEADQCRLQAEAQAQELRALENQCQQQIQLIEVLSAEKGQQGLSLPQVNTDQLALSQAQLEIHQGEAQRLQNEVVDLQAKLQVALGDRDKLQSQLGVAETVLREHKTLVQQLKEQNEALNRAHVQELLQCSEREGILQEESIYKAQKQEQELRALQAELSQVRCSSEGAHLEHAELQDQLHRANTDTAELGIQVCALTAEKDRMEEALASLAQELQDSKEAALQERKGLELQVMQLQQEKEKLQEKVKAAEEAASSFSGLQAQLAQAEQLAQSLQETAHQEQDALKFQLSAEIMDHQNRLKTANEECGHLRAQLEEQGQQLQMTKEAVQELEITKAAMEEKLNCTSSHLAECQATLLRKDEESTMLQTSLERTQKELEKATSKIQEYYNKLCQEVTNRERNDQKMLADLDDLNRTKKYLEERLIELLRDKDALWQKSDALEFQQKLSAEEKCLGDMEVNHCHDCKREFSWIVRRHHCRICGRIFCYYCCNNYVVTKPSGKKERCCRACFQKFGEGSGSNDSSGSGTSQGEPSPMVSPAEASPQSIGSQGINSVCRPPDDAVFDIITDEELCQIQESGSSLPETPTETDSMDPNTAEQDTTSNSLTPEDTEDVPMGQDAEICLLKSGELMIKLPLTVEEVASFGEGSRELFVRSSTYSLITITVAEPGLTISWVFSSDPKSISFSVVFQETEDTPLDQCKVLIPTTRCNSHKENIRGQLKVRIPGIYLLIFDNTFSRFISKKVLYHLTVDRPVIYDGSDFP
Test: co-IP; endogenous proteins; WT mouse eye lysate (10 mg, 1% Triton X-100 lysis buffer) immunoprecipitated with rabbit anti-FYCO1 or control antibody and protein A sepharose; blot with anti-αA or anti-αB crystallin

binding: binds
B1: mouse αB-crystallin, endogenous (protein, UniProt P23927 1-175)
chain: MDIAIHHPWIRRPFFPFHSPSRLFDQFFGEHLLESDLFSTATSLSPFYLRPPSFLRAPSWIDTGLSEMRLEKDRFSVNLDVKHFSPEELKVKVLGDVIEVHGKHEERQDEHGFISREFHRKYRIPADVDPLTITSSLSSDGVLTVNGPRKQVSGPERTIPITREEKPAVAAAPKK
